We go through one substance from publication PMC2845650.

Chains of the proteins cited; added tags and fusions are not shown. Lines headed by an entry give the natural chain unless they say otherwise; changes in a name come on top. A line that says so, or that is headed by a name, gives the form on record, which may keep a tag or linker.
human Coxsackie and Adenovirus Receptor, exon 8 isoform (hCAR^Ex8) (P78310, form named): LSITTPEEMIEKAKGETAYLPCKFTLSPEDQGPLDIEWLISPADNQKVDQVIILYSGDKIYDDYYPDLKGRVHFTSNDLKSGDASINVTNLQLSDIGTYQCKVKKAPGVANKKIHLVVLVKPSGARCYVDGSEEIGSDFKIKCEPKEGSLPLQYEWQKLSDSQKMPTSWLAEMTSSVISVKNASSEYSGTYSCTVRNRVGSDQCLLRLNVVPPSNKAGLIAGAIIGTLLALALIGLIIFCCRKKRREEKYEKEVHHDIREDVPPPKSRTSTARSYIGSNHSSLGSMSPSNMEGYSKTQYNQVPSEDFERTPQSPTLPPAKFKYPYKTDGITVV
UniProt Q9NRD5: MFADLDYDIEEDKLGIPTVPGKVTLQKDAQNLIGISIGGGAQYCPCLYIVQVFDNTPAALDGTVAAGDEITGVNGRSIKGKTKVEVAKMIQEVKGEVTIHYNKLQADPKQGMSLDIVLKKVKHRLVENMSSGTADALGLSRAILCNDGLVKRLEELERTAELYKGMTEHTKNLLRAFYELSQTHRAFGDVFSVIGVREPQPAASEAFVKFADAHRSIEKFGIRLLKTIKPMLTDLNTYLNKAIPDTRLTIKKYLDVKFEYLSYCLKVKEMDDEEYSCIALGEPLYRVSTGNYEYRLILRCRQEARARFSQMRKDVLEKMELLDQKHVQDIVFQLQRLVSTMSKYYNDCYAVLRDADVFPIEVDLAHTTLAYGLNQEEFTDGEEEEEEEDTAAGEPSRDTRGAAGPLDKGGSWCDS

These are yes or no findings as the source states them, for the method shown. In cells and extracts the contact can be indirect.

In this test the target is human Coxsackie and Adenovirus Receptor, exon 8 isoform (hCAR^Ex8) (human) (UniProt P78310). Put plainly: co-IP; COS-7 cells co-transfected by electroporation, lysed 2 days later (50mM Tris-HCl pH 7.5, 137mM NaCl, 1% Triton X-100, 5mM EDTA, 1mM EGTA); supernatant with antibody (RmcB against the hCAR extracellular domain, GFP antibody, control MopC) at 4°C overnight, protein A or G sepharose; Western blot. Background: Immunoblotting shows a protein as a band on a membrane.

For the substance PICK1-GFP (from UniProt Q9NRD5 1-415), the binding entry was “no binding”.
